# Literature values as cited in US8734787B2, “Drug delivery system” (Erydel S.p.A., priority 2009, dated 2014).
# At least one compound was matched to its structure with a doubt left.
# Conditions: cited from earlier work
compound,measurement,value
"C=CC[C@@H]1/C=C(\C)C[C@H](C)C[C@H](OC)[C@H]2O[C@@](O)(C(=O)C(=O)N3CCCC[C@H]3C(=O)O[C@H](/C(C)=C/[C@@H]3CC[C@@H](O)[C@H](OC)C3)[C@H](C)[C@@H](O)CC1=O)[C@H](C)C[C@@H]2OC (relative stereo) [FK506, 3S-[3R*[E(1S*,3S*,4S*)],4S*,5R*,8S*,9E,12R*,14R*,15S*,-16R*,18S*, 19S*,26aR*]]-5,6,8,11,12,13,14,15,16,17,18,19,24,25,26,26a-hexadecahydro-5,19-dihydroxy-3-[2-(4-hydroxy-3-methoxycyclohexyl)-1-methylethenyl]-14,16-dimethoxy-4,10,12,18-tetramethyl-8-(2-propenyl)-15,19-epoxy-3H-pyrido[2,1-c][1,4]oxaazacyclotricosine-1,7,20,21(4H,23H)-tetrone mono-hydrate]","in vitro potency, times greater than Cyclosporin",100 times
